Reference: PubChem BioAssay AID1508600 (Functional Genomics Laboratory (NCATS/FGL), 2020)
The campaign covered roughly 53,000 sequences. About 3,700 (7%) were called active.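 The calls were made as follows: active = gene knockdowns whose robust z-score for IL-1 alpha signal is at least 2 or at most -2, so actives lie on both sides; inactive = the rest.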 Some of the results follow.

Assay: Components of the Cytosolic LPS Sensing Pathway: Gene Identification via Genome-wide siRNA Screen;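 also: robust z of the log signal after scaling to non-targeting control siRNA wells of the plate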
Conditions: RAW264.7 macrophages, IL-1a HTRF, actives lie on both sides, screened at 100 nM (by protocol), cells primed 5 h with Pam3CSK4 first
Method in brief: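 Mouse macrophage line RAW264.7 is transfected with siRNA (100 nM final), grown 48h, primed with TLR ligand Pam3CSK4 5 h and given intracellular LipidA 24 h. IL-1a in supernatant is read by HTRF and viability by luminescence.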

Sequence	z-score
GGACACCAUCAAUUGAUUATT against Wdr27	inactive: -0.127
GCCCAACAACGCAGAAUUUTT against Cyp4v3	inactive: 1.25
GGACUGCUAUGGGUCUUCATT against Clk3	inactive: -0.684
GCUGAACCAAACCCAAAUGTT against Snph	inactive: 0.00664
CCAGAUAUGAUGGUGCAAGTT against Sfrp4	inactive: 0.351
CCACAGUGAAUCGAGCUUATT against Olfr685	inactive: -0.597
GGACAGCAUUCUGAGCAGUTT against Cx3cr1	inactive: -0.341
GCAGGAGAAAAGAAUCAAGTT against Gm5800	inactive: -1.44
GGACCACGCAAAAGAAUAUTT against Mtss1	inactive: 0.0212
GCCCGUCACAAUCAUUACCTT against Zfp523	inactive: 1.59
GCAGCUUUGCUCAGCCCAATT against Tex22	inactive: -1.12
GCUAAUUCAAGAGGAACUATT against Ccdc18	inactive: -0.526
GGAAAACAAAUUCAAGUGCTT against Tex9	inactive: 1.51
GCAGGGUUUCAAAGAUAACTT against Npepl1	inactive: -0.765
GGAAGUCUUCCAUGAUAUUTT against 4933400A11Rik	inactive: -0.752
CCAAUCCAAUGAAUGUUUCTT against A330070K13Rik	inactive: -1.75
CCAUCCUCAACAAGAUCGATT against Rab4b	active: 2.25
CGCCAAUUCAUCGUUGACUTT against Ccl3	inactive: 0.773
CGAAUUGAAUUCUACGAACTT against Pmm2	inactive: 0.252
GGCUCCUCUUUUAUCUACATT against Erg28	inactive: -0.881
CCACCUCUCAAAUAAAACATT against Cyp2a5	inactive: -0.629
GGAAUUUUAUUCAGAGGCUTT against Thoc5	inactive: -0.548
GGACUGCACUGUCAUGGUATT against Coro1b	inactive: -0.378
GGUCCAGAUUCGAACACCATT against Babam1	inactive: -1.13
CGUCCAACCACAGAUCUACTT against 4921536K21Rik	inactive: 0.752
CCCACAUCUUAACUUGUUGTT against Rab5c	inactive: 0.0792
GGAUGCUAUUUUUGAAACCTT against Lins1	inactive: -0.0898
GGUCAAUUCCAUGAUUACGTT against Pgm3	inactive: 0.538
GCGGGAACUUAAAGUUUACTT against Yars	active: 3.18

Single values from the entries so far.
GCUGAACCAAACCCAAAUGTT against Snph – z-score: inactive: 0.00664
GCAGGGUUUCAAAGAUAACTT against Npepl1 – z-score: inactive: -0.765
